## Screening data, single-dose tests

Chains of the proteins cited; added tags and fusions are not shown.
UniProt P9WNZ1, whole entry: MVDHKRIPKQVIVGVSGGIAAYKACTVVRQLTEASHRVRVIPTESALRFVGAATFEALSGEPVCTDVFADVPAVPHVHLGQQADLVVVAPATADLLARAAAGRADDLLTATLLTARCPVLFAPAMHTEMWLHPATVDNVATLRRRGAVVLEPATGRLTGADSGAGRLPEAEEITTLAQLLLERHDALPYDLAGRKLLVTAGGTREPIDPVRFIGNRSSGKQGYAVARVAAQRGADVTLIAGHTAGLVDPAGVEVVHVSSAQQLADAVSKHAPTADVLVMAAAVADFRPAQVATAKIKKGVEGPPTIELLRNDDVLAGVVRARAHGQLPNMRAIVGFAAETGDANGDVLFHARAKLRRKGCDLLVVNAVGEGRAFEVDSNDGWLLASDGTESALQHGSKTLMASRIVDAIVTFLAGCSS

Measurements from “University of Dundee, Small-Polar-MMV Screening Library” (2021), ChEMBL document CHEMBL3988442.

Values are the deposited “Percent Effect”, in %. The controls that fix the scale are not given in the record; negative values are as filed. This is an unselected part of the compounds tested. Two or more numbers in one place are separate tests of the same structure; such repeats can differ widely. A dash means the value is not listed here; it may have been measured.

CoaBC: 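Enzyme assay of CoaBC with a phosphate dye (Biomol Green) read at 650 nm. Target: Coenzyme A biosynthesis protein CoaBC, Mycobacterium tuberculosis (UniProt P9WNZ1). Compounds at 30 µM. Higher reads as stronger inhibition, judged from the few compounds that gave an IC50. Most strong results did not repeat in a second test. About 67,000 compounds were tested under these conditions; 0.06% (about 40) showed 50% or more at least once.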
Leishmania in macrophages: 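Cell assay of Leishmania donovani living inside macrophages; the read-out is not stated. Concentration: 30 µM. Direction is inferred from retests: higher values go with stronger inhibition. Size under these conditions: about 69,000 compounds, about 1,000 of them at 50% or above in at least one test.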

| structure | CoaBC | Leishmania in macrophages |
|---|---|---|
| `Cc1ccc(C(=O)N2CCC3(CC2)COC(COc2ccccn2)C3)o1` (centres undefined) | -0.9009% | - |
| `CN(C)S(=O)(=O)N1CCC(Oc2cccnn2)CC1` | 1.083% | -19.41% |
| `CC[C@@H]1N(C)CCC[C@]12CCC(=O)N2Cc1ccncc1` | 1.931% | - |
| `Cc1ccccc1CN1CCC(NCC2CNc3ccnn3C2)CC1` (centres undefined) | -41.85% | 58.34% |
| `CN(C)CCO[C@H]1C[C@@H](O)C12CCN(c1nccc3ccccc13)CC2` | -19.65% | 15.51% |
| `CCCNC(=O)C(C)Oc1ccc(F)cc1` (centres undefined) | 3.353% | 17.25% |
| `CN(CC(=O)N1CCC(COc2ccccc2)CC1)c1cnccn1` | -3.362% | 4.817% |
| `O=C(CCn1ccc2ccccc21)N1CCN(Cc2cccnc2)CC1` | 1.088% | -9.636% |
| `Cc1ccc(OCC(=O)N2CCN[C@H]3CS(=O)(=O)C[C@H]32)cn1` | 12.02% | - |
| `CCc1ccccc1NC(=O)C1CN(C(C)=O)C1` | -0.4202% | 2.496% |
| `[H][C@@]12C[C@H](C)O[C@@]1([H])CCN(C(=O)CCOC)C2` | - | -5.119% |
| `Cc1cccc(C)c1OCC(=O)NC(C)c1nnc2n1CCC2` (centres undefined) | 4.854% | -6.967% |
| `CO[C@H]1C[C@@H]2CN(C(=O)c3cc4cccc(F)c4[nH]3)C[C@@H]2C1` | -6.57% | - |
| `Cc1cnc(N2CCC3(CCCN(c4ncc(F)cn4)C3)C2)nc1` (centres undefined) | 5.977% | 28.29% |
| `CCOc1cc(Cl)ccc1CNC(=O)N(C)CC(C)(C)O` | 0.8963% | -35.32% |
| `Cc1noc(CS(=O)(=O)C/C=C/c2ccccc2)n1` | 10.68% | 20.91% |
| `O=C1CN(CCCNS(=O)(=O)c2cccc(C(=O)NC3CC3)c2)CCN1` | -4.412% | 6.673% |
| `CC(C)Nc1ncnc2c1CCN(C(=O)c1ccccc1F)CC2.O=C(O)C(F)(F)F` | - | 15.3% |
| `CCc1nnc2n1CCN(C(=O)c1ccc3c(c1)nnn3C)C2` | 2.551% | 7.902% |
| `CC(C)OCCC(=O)N(C)c1ccc(F)c(Cl)c1` | -5.034% | 8.215% |
| `Cn1ccnc1C(=O)NC[C@H]1OC[C@@H]2CCN(S(C)(=O)=O)C[C@@H]21` | -0.4926% | - |
| `COc1ccccc1N1CCC(CNCc2cccc(OC)c2OC)C1` (centres undefined) | 5.101% | 38.11% |
| `Cc1c(CN2CCOCC2)c(O)n(CCO)c(=O)c1C#N` | -15.58% | 17.42% |
| `CN1CCC(N2Cc3nc(N)ncc3C2=O)CC1` | 2.771% | 54.63% |
| `CC(CCc1cccn1C)NC(=O)Nc1cccn(C)c1=O` (centres undefined) | -6.349% | -6.669% |
| `COc1ccnc(NCC2CN(C3CC3)CCO2)n1` (centres undefined) | 6.374% | -12.2% |
| `COc1ncc(C(=O)N2CCCC3(C=Cc4ccccc4O3)CC2)cn1` (centres undefined) | 8.46% | 2.072% |
| `O=C1[C@H]2CN(C3CCOCC3)C[C@H]2CN1Cc1cccnc1` | 0.4673% | - |
| `CC(C)N1CCc2c(c(COc3cccnc3)nn2CC2CC2)C1` | -0.2114% | - |
| `CCOCCC(=O)NCc1ccnc(NC2CC2)c1` | -12.5% | 8.801% |
| `CC(=O)N1[C@H](CN(C)C)C[C@@H]2CN(C(=O)c3cccc(F)c3)CC[C@@H]21` | 0.4837% | - |
| `COc1ccc2c(c1)C(C(=O)NCCCN1CCN(C)CC1)CC(=O)N2` (centres undefined) | 2.799% | 28.65% & 3.634% |
| `CC(C)CN1CC2(CCN(C(=O)C(O)c3cccc(Cl)c3)CC2)CC1=O` (centres undefined) | -1.442% | 13.22% |
| `O=C(c1ccncc1)N1CCC2(CCCN(c3ncc(F)cn3)C2)C1` (centres undefined) | 2.963% | - |
| `CCN1CC2(CC1=O)CN(Cc1ccsc1)CCN(C(=O)C(C)C)C2.O=C(O)C(F)(F)F` (centres undefined) | - | 4.373% |
| `O=C(O)c1csc(S(=O)(=O)Nc2cccc(OCC(F)(F)F)c2)c1` | 9.895% | -13.14% |
| `COC[C@]12COC[C@H]1CN(C(=O)C1CC(F)(F)C1)C2` | 5.943% | - |
| `O=C(NCC(O)c1ccc(F)cc1F)c1ccccc1F` (centres undefined) | 15.48% | -10.68% |
| `[H][C@@]12CCCCCN(C(C)=O)[C@@]1([H])[C@H](c1cccc(F)c1)CN2C(=O)C1CC1` | - | 16.49% |
| `CN(C(=O)Nc1ccncc1)C1CCN(c2ccc(Cl)cc2)CC1` | 1.684% | 17.26% |
| `Cc1cc(C(F)(F)F)nc(CCNc2nc(C)nc3c2cnn3C)n1` | 6.71% | -18.36% |
| `Cl.Cn1ccnc1CNC(=O)c1cncc(C2CCNCC2)n1` | - | 6.226% |
| `COc1cc(Cl)cc(CN2CCCC(N3CCCC3)C2)c1OC` (centres undefined) | 1.942% | 12.54% |
| `CCc1nccn1C1CCCN(C(=O)c2cnc3onc(C)c3c2)C1` (centres undefined) | 11.45% | 3.568% |
| `Cc1nn(C)c(C)c1C1CCCN1CC(=O)Nc1ccncc1` (centres undefined) | 0.8304% | 11.32% |
| `c1cnc(N2C[C@H]3CCC[C@@H](CN4CCCC4)[C@H]3C2)nc1` | 1.018% | - |
| `O=C(c1cncs1)N1CCOCC(Cc2ccncn2)C1` (centres undefined) | -18.42% | 5.811% |
| `CC(C)(C)OC(=O)N1CCCN1C(=O)c1cccc(F)c1F` | -1.129% | 15.42% |
| `Cc1csc(NC(=O)[C@@H]2C[C@H]3[C@H](CCN3c3ncccn3)O2)n1` | 2.788% | - |
| `CN1CCCC(c2nnc3n2CCN(S(=O)(=O)c2ccccc2Cl)C3)C1` (centres undefined) | 1.435% | 18.08% |
| `CCC(CC)C(=O)NCc1c(C)nn(C)c1N1CCCN(C)CC1` | -6.542% | 5.586% |
| `CCn1ncc2c1C(COC)CN(Cc1cccnc1)C2` (centres undefined) | -2.222% | - |
| `Cc1ccc(CCNC(=O)NCc2cccc(OC(F)F)c2)cn1` | 3.415% | 34.4% |
| `C=C(C)CN(CC)C(=O)c1cc(C)ccc1NS(C)(=O)=O` | 3.273% | 15.81% |
| `Cc1cccc(-c2nc(CN3CCCCC3Cn3cncn3)no2)c1` (centres undefined) | -0.266% | 21.44% |
| `Cc1ncc(C(=O)NCCNc2ncccc2C#N)s1` | -1.979% | 22.94% |

For reference, 5 entries once more:

For O=C(O)c1csc(S(=O)(=O)Nc2cccc(OCC(F)(F)F)c2)c1 the result was CoaBC: 9.895%; Leishmania in macrophages: -13.14%.
For COc1cc(Cl)cc(CN2CCCC(N3CCCC3)C2)c1OC (centres undefined) the result was CoaBC: 1.942%; Leishmania in macrophages: 12.54%.
For COc1ccnc(NCC2CN(C3CC3)CCO2)n1 (centres undefined) the result was CoaBC: 6.374%; Leishmania in macrophages: -12.2%.
For O=C(c1ccncc1)N1CCC2(CCCN(c3ncc(F)cn3)C2)C1 (centres undefined) the result was CoaBC: 2.963%.
For CCc1ccccc1NC(=O)C1CN(C(C)=O)C1 the result was CoaBC: -0.4202%; Leishmania in macrophages: 2.496%.